This note sets out measurements from PMC8893695, “The microprotein Nrs1 rewires the G1/S transcriptional machinery during nitrogen limitation in budding yeast” (PLoS Biology, 2022).

These are yes or no findings as the source states them, for the method shown. A result given as binding can be weak or reduced; the word gives no strength. For some assays here: In cells and extracts the contact can be indirect. For some assays here: Where a sequence is shown, tags or fusion partners need not be part of it.

Experiment [1] addresses T1, Swi4^3FLAG (S. cerevisiae) (UniProt P25302).
T1 sequence: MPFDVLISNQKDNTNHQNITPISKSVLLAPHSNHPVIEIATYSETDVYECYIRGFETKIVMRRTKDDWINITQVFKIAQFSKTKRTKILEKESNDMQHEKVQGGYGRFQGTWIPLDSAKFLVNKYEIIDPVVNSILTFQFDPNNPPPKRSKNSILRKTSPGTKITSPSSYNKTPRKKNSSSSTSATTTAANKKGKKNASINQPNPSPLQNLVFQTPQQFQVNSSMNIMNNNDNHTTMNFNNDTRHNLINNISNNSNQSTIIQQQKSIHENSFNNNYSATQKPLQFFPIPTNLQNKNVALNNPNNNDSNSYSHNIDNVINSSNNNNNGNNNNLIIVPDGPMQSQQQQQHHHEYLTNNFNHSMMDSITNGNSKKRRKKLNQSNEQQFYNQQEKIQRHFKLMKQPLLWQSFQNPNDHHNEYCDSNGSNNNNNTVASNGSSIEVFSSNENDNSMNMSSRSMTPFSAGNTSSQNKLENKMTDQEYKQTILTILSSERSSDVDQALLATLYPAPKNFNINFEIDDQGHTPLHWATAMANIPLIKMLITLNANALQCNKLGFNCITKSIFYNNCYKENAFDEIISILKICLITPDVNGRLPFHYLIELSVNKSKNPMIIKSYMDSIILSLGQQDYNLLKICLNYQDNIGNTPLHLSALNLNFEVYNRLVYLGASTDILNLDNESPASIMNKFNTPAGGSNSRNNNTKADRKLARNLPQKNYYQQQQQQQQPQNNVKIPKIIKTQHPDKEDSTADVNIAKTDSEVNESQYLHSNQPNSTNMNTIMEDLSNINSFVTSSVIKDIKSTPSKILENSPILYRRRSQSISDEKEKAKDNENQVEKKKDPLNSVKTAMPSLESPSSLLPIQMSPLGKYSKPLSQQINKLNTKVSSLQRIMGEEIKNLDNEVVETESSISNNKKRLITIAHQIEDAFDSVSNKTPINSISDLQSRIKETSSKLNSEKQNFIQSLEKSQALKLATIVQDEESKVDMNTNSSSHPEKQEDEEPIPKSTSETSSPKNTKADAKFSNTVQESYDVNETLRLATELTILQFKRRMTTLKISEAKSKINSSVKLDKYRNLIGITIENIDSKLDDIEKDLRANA
Nature of the experiment: co-IP; Swi4^3FLAG or Swi6^3FLAG captured on anti-FLAG M2 resin from extracts of cells treated with 200 nM rapamycin (2 h; 3 h in the replicate); all alleles from endogenous promoters; blots with anti-FLAG and anti-MYC.

Experiment [2] deals with T2, Swi6^3FLAG (S. cerevisiae) (UniProt P09959).
T2 sequence: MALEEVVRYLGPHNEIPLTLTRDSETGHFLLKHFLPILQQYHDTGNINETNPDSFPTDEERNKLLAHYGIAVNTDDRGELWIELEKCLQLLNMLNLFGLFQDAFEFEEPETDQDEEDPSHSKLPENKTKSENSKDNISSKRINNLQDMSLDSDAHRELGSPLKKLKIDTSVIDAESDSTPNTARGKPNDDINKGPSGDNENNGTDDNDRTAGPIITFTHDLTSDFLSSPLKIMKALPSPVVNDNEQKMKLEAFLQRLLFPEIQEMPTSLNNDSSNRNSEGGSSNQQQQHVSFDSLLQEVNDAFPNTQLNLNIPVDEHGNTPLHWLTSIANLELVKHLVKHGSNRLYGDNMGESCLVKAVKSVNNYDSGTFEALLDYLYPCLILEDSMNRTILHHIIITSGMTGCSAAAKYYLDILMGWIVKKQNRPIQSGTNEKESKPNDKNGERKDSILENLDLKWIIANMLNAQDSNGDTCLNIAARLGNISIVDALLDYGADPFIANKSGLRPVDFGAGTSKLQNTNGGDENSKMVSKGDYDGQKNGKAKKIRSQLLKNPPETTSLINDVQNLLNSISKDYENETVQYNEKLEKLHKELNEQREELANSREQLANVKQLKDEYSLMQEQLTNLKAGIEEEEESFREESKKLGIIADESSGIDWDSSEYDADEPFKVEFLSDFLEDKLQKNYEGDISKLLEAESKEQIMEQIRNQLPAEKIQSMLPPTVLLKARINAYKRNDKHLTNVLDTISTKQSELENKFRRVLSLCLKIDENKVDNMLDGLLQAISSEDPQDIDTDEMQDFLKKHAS
The experiment is described as above.

Experiment [3] addresses ^FLAGSwi4-Swi6-^GSTNrs1 complex (S. cerevisiae). Nature of the experiment: pull-down; recombinant ^HAWhi5 or ^GSTNrs1 titrated into preformed ^FLAGSwi4-Swi6-^GSTNrs1 or ^FLAGSwi4-Swi6-^HAWhi5 complexes immobilised on anti-FLAG resin; immunoblot and Coomassie; both purified. In general terms: A western blot detects proteins with antibodies after separation by electrophoresis.

Experiment [4] concerns the target Nrs1^13MYC (S. cerevisiae). Nature of the experiment: co-IP; Nrs1^13MYC or Whi5^13MYC captured on anti-MYC resin from cultures untreated or treated with 200 nM rapamycin for 3 h; blots with polyclonal anti-Swi4 and anti-Swi6.

For Nrs1^13MYC (S. cerevisiae), the binding entry in experiment [1] and in experiment [2] was “binds” in each case.

B1: recombinant ^HAWhi5 (natural protein, S. cerevisiae, UniProt Q12416 1-295, looked up)
chain: MSLRTPKRSRTSDEQEQEQEQEQVQNPDTHVNNEHQQRPGPTTLLSTPVRLKNGFGTPSPPSPPGITKSITKSRRRPSTTSLQGIFMSPVNKRRVGITAHGRVYDHNDDGHESESEDDENEEENENQKKYDGHVSMPLLPPTTPKSRRSEVFLSPSPRLRSPPTAARRSTGERPIREISHTLRTRLNYALVKLQNGWTDKTLPELETELAPAVQTPPRRYHNRFPDSADAGTSAHTAFLQALGGHPPREEATAVETLMLLSSPTKKQQHRPVPATSAGEPTDETEPESDTEVETS
notes: Whi5, S. cerevisiae; source: recombinant
Turning to B1, in experiment [3], the binding result was “binds”.

B2: Swi6 (protein, UniProt P09959 1-803)
chain: MALEEVVRYLGPHNEIPLTLTRDSETGHFLLKHFLPILQQYHDTGNINETNPDSFPTDEERNKLLAHYGIAVNTDDRGELWIELEKCLQLLNMLNLFGLFQDAFEFEEPETDQDEEDPSHSKLPENKTKSENSKDNISSKRINNLQDMSLDSDAHRELGSPLKKLKIDTSVIDAESDSTPNTARGKPNDDINKGPSGDNENNGTDDNDRTAGPIITFTHDLTSDFLSSPLKIMKALPSPVVNDNEQKMKLEAFLQRLLFPEIQEMPTSLNNDSSNRNSEGGSSNQQQQHVSFDSLLQEVNDAFPNTQLNLNIPVDEHGNTPLHWLTSIANLELVKHLVKHGSNRLYGDNMGESCLVKAVKSVNNYDSGTFEALLDYLYPCLILEDSMNRTILHHIIITSGMTGCSAAAKYYLDILMGWIVKKQNRPIQSGTNEKESKPNDKNGERKDSILENLDLKWIIANMLNAQDSNGDTCLNIAARLGNISIVDALLDYGADPFIANKSGLRPVDFGAGTSKLQNTNGGDENSKMVSKGDYDGQKNGKAKKIRSQLLKNPPETTSLINDVQNLLNSISKDYENETVQYNEKLEKLHKELNEQREELANSREQLANVKQLKDEYSLMQEQLTNLKAGIEEEEESFREESKKLGIIADESSGIDWDSSEYDADEPFKVEFLSDFLEDKLQKNYEGDISKLLEAESKEQIMEQIRNQLPAEKIQSMLPPTVLLKARINAYKRNDKHLTNVLDTISTKQSELENKFRRVLSLCLKIDENKVDNMLDGLLQAISSEDPQDIDTDEMQDFLKKHAS
For B2, in experiment [4], the binding result is on record as “binds”.

B3: Swi4 (protein, UniProt P25302 1-1093)
chain: MPFDVLISNQKDNTNHQNITPISKSVLLAPHSNHPVIEIATYSETDVYECYIRGFETKIVMRRTKDDWINITQVFKIAQFSKTKRTKILEKESNDMQHEKVQGGYGRFQGTWIPLDSAKFLVNKYEIIDPVVNSILTFQFDPNNPPPKRSKNSILRKTSPGTKITSPSSYNKTPRKKNSSSSTSATTTAANKKGKKNASINQPNPSPLQNLVFQTPQQFQVNSSMNIMNNNDNHTTMNFNNDTRHNLINNISNNSNQSTIIQQQKSIHENSFNNNYSATQKPLQFFPIPTNLQNKNVALNNPNNNDSNSYSHNIDNVINSSNNNNNGNNNNLIIVPDGPMQSQQQQQHHHEYLTNNFNHSMMDSITNGNSKKRRKKLNQSNEQQFYNQQEKIQRHFKLMKQPLLWQSFQNPNDHHNEYCDSNGSNNNNNTVASNGSSIEVFSSNENDNSMNMSSRSMTPFSAGNTSSQNKLENKMTDQEYKQTILTILSSERSSDVDQALLATLYPAPKNFNINFEIDDQGHTPLHWATAMANIPLIKMLITLNANALQCNKLGFNCITKSIFYNNCYKENAFDEIISILKICLITPDVNGRLPFHYLIELSVNKSKNPMIIKSYMDSIILSLGQQDYNLLKICLNYQDNIGNTPLHLSALNLNFEVYNRLVYLGASTDILNLDNESPASIMNKFNTPAGGSNSRNNNTKADRKLARNLPQKNYYQQQQQQQQPQNNVKIPKIIKTQHPDKEDSTADVNIAKTDSEVNESQYLHSNQPNSTNMNTIMEDLSNINSFVTSSVIKDIKSTPSKILENSPILYRRRSQSISDEKEKAKDNENQVEKKKDPLNSVKTAMPSLESPSSLLPIQMSPLGKYSKPLSQQINKLNTKVSSLQRIMGEEIKNLDNEVVETESSISNNKKRLITIAHQIEDAFDSVSNKTPINSISDLQSRIKETSSKLNSEKQNFIQSLEKSQALKLATIVQDEESKVDMNTNSSSHPEKQEDEEPIPKSTSETSSPKNTKADAKFSNTVQESYDVNETLRLATELTILQFKRRMTTLKISEAKSKINSSVKLDKYRNLIGITIENIDSKLDDIEKDLRANA
On to B3, for which the binding result in experiment [4] was “binds”.
